No constants are given. Whether binding was seen depends on the method and setting. For some assays here: A result given as binding can be weak or reduced; the word gives no strength. Tags and fused reporters may be left off the sequences shown.

One test concerns the target desmin-coil 1 (human). Nature of the test: far-Western, overlay or dot blot; FluoBACE overlay of western blot: whole extracts from E. coli expressing the proteins on 15% SDS-PAGE, transferred, overlaid 1 h at 4°C with soluble HEK 293T extract with EGFP-DSP C-terminus (67 ± 17 nM total), fluorescence scan.
A further test addresses desmin-coil 2 (human). The description is as above.

B1: EGFP-DSP C-terminus (C-terminus of desmoplakin tagged at the N-terminus with EGFP) (domain or fragment, UniProt P15924-1 2194-2871)
chain: PHTGLLLLSVQKRSMSFQGIRQPVTVTELVDSGILRPSTVNELESGQISYDEVGERIKDFLQGSSCIAGIYNETTKQKLGIYEAMKIGLVRPGTALELLEAQAATGFIVDPVSNLRLPVEEAYKRGLVGIEFKEKLLSAERAVTGYNDPETGNIISLFQAMNKELIEKGHGIRLLEAQIATGGIIDPKESHRLPVDIAYKRGYFNEELSEILSDPSDDTKGFFDPNTEENLTYLQLKERCIKDEETGLCLLPLKEKKKQVQTSQKNTLRKRRVVIVDPETNKEMSVQEAYKKGLIDYETFKELCEQECEWEEITITGSDGSTRVVLVDRKTGSQYDIQDAIDKGLVDRKFFDQYRSGSLSLTQFADMISLKNGVGTSSSMGSGVSDDVFSSSRHESVSKISTISSVRNLTIRSSSFSDTLEESSPIAAIFDTENLEKISITEGIERGIVDSITGQRLLEAQACTGGIIHPTTGQKLSLQDAVSQGVIDQDMATRLKPAQKAFIGFEGVKGKKKMSAAEAVKEKWLPYEAGQRFLEFQYLTGGLVDPEVHGRISTEEAIRKGFIDGRAAQRLQDTSSYAKILTCPKTKLKISYKDAINRSMVEDITGLRLLEAASVSSKGLPSPYNMSSAPGSRSGSRSGSRSGSRSGSRSGSRRGGFDATGNSSYSYSYSFSSSSIGH
As to B1, the binding entry with desmin-coil 1 (human) is “binds”; with desmin-coil 2 (human) it was “no binding (tested: 67 ± 17 nM, total concentration)”.

The record behind these values is publication PMC6171917.
